# According to PubChem BioAssay AID504834 (National Center for Advancing Translational Sciences (NCATS), 2011):
# Out of some 320,000 compounds screened, about 22,000 (6.9%) were called active. Inconclusive results, whose numbers are uncertain, are shown with a selection of clear calls. Calls follow the shape of the dose curve; as a rule, active = well fitted inhibition curve with a large enough effect; inconclusive = small, poorly fitted or top-dose-only effect, or another doubt; inactive = no such curve, though single readings can be large or run the other way. A potency beside an inconclusive call is a rough fit, not a confirmed value.
# Assay: Primary qHTS for delayed death inhibitors of the malarial parasite plastid, 96 hour incubation
# Details: P. falciparum luciferase reporter growth; series mostly up to 28.7 µM; activity change, negative = inhibition: at the top concentration
# Summary of the method: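 Infected RBCs, 2% Hct / 0.05% parasitemia final; luciferase-reporter P. falciparum; cpd 96 h, 37 C, 5% CO2; luciferase detection reagent; luminescence.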
# % is scaled to controls: 0 for no effect and ±100 for the full control effect; potency is read from the fitted curve at half-maximal effect.
Compound,"activity change, negative = inhibition",Potency
Cn1cc(Cl)c(C(=O)OCC(=O)Nc2cccc(Cl)c2)n1,inactive: 10.6%,–
CC(=O)N1CCC(N(CCN2CCOCC2)C(=S)Nc2cc(C)ccc2C)CC1,–,"inconclusive: 10.4 µM [inhibitor, single point]"
CCc1nnc(NC(=O)CSc2nnc(Cc3ccccc3)n2-c2ccccc2)s1,–,"inconclusive: 14.7 µM [inhibitor, partial curve, poor fit]"
Cc1coc2c1c(C)cc1oc(=O)c(CC(=O)N[C@@H](C)C(=O)O)c(C)c12,inactive: -1.9%,–
O=c1c2ccccc2nc(SCc2ccccc2)n1Cc1ccco1,inactive: 17.6%,–
O=S(=O)(c1ccc(Br)s1)n1cccn1,–,"inconclusive: 0.0033 µM [inhibitor, full curve, poor fit]"
CC(=O)N1CCC(N2CCCC(C(=O)c3cccc(Cl)c3)C2)CC1 (stereo not drawn),–,"inconclusive: 10.4 µM [inhibitor, single point]"
Cc1nc2ccccc2c(=O)n1NC(=O)c1cccc([N+](=O)[O-])c1,–,"inconclusive: 3.7 µM [inhibitor, full curve, poor fit]"
COc1ccc(S(=O)(=O)N2CCC(C(=O)N[C@H](C(=O)N3CCCCCC3)C(C)C)CC2)cc1,–,"inconclusive: 10.4 µM [inhibitor, partial curve]"
CCN(CC)C(=O)c1cn(C)c2ccc(S(=O)(=O)N(CC)CC)cc2c1=O,inactive: 31.6%,–
CCN(CC(=O)N1CCCCC1)S(=O)(=O)c1ccccc1,–,"inconclusive: 0.0037 µM [inhibitor, full curve, poor fit]"
Cc1[nH]c2ccccc2c1C(=O)C(=O)N1CC2CC(C1)c1cccc(=O)n1C2 (stereo not drawn),–,"inconclusive: 0.0329 µM [inhibitor, full curve, poor fit]"
CCOc1ccc(S(=O)(=O)NCCC(=O)N(C)Cc2cccs2)cc1,inactive: -16.6%,–
COc1ccc(C2=NOC(Cn3nc(C(=O)NCC4CC4)cc3-c3ccccc3)C2)cc1 (stereo not drawn),–,active: 9.28 µM
CN(CC1CCOCC1)C(=O)CC1C(=O)NCCN1C/C=C/c1ccccc1 (stereo not drawn),–,active: 4.65 µM
CCC(=O)N1CCCc2cc(S(=O)(=O)N3CCCc4ccccc43)ccc21,inactive: -6.8%,–
CSC1=NCCN1C(=O)c1c(-c2c(F)cccc2Cl)noc1C,inactive: -10.7%,–
O=C(C[n+]1cccc2ccccc21)c1ccccc1,–,active: 13.1 µM
CCOc1ccc(CCNC(=O)COC(=O)c2ccc(F)c(S(=O)(=O)N3CCOCC3)c2)cc1OCC,–,"inconclusive: 14.7 µM [inhibitor, partial curve, poor fit]"
COc1ccc(NC(=S)NCCCN2CCCC2=O)c(OC)c1,–,"inconclusive: 11.7 µM [inhibitor, single point]"
CO[C@]12C(COC(N)=O)C3=C(C(=O)C(C)=C(N)C3=O)N1CC1NC12 (stereo partly drawn),–,active: 0.601 µM
CC(=O)N1c2ccc(S(=O)(=O)N3CCC(C(=O)N4CCCC(C)C4)CC3)cc2CC1C (stereo not drawn),–,"inconclusive: 0.117 µM [inhibitor, full curve, poor fit]"

# 2 compounds drawn at random from those above, as already listed:
Compound,"activity change, negative = inhibition",Potency
Cc1[nH]c2ccccc2c1C(=O)C(=O)N1CC2CC(C1)c1cccc(=O)n1C2 (stereo not drawn),–,"inconclusive: 0.0329 µM [inhibitor, full curve, poor fit]"
O=C(C[n+]1cccc2ccccc21)c1ccccc1,–,active: 13.1 µM

# (more compounds)

Compound,"activity change, negative = inhibition",Potency
CCC(=O)N1CCc2cc(S(=O)(=O)NCCCN(CC)Cc3ccccc3)ccc21,inactive: 118%,–
CC(=O)OC[C@H]1O[C@@H](O/N=C/C[C@@H]2C=C[C@H](OC(C)=O)[C@@H](COC(C)=O)O2)[C@H](OC(C)=O)[C@@H](OC(C)=O)[C@@H]1OC(C)=O,–,"inconclusive: 18.5 µM [inhibitor, single point]"
Cc1ccc(C)c(-n2cc(CN3CCCN(C=O)CC3)c(-c3ccccc3)n2)c1,–,"inconclusive: 18.5 µM [inhibitor, single point]"
COC(=O)C1=C(c2ccc(OC)c(OC)c2)C[C@@H]2CC[C@H]1N2C(=O)NC1Cc2ccccc2C1,–,"inconclusive: 0.738 µM [inhibitor, full curve]"
CSc1nnc(CNS(=O)(=O)c2ccc(F)cc2)n1C,–,"inconclusive: 13.1 µM [inhibitor, single point]"
Cc1ccc(-c2noc(CCCC(=O)NCC3CCCO3)n2)cc1 (stereo not drawn),inactive: -3.92%,–
CCCCNC(=O)CSc1nnc(-c2cccc(S(=O)(=O)N3CCOCC3)c2)o1,–,"inconclusive: 14.7 µM [inhibitor, single point]"
Cc1ccc(S(=O)(=O)N2CCN(C(=O)CN3C(=O)c4ccccc4C3=O)CC2)c(C)c1,inactive: 22.1%,–
Cc1cc(C)c(OCC(O)CN2CCN(C(=O)c3ccccc3)CC2)c(C)c1 (stereo not drawn),–,active: 6.57 µM
Cc1cccc(OCc2n[nH]c(=S)n2Cc2ccccc2)c1,inactive: 30%,–
Cc1nc(SCC(=O)NC2(C#N)CCCC2)n(CC(C)C)c1C,inactive: -8.15%,–
Cc1ccc2cc3cc(C(=O)NCCC(C)C)oc3nc2c1,–,"inconclusive: 11.7 µM [inhibitor, partial curve, poor fit]"
CCN(CC)CCCN1C(=O)C(=O)/C(=C(/O)c2ccc3c(c2)CC(C)O3)C1c1cccnc1 (stereo not drawn),–,active: 1.47 µM
NC(=O)C1CN(C(=O)c2nn(Cc3ccccc3)c(=O)c3ccccc23)c2ccccc2O1 (stereo not drawn),–,"inconclusive: 9.28 µM [inhibitor, partial curve]"
O=C(NCc1ccccc1)c1ccc(N2CCC3(CC2)CC(c2ccc(Cl)cc2)=NO3)c([N+](=O)[O-])c1,–,"inconclusive: 11.7 µM [inhibitor, partial curve]"
O=C1NC[C@@H](Cc2ccc(O)cc2)N(CCc2cccc3ccccc23)C1=O,–,"inconclusive: 9.28 µM [inhibitor, single point]"
COc1cccc(NC(=O)CSc2nnc(-c3cc(C)[nH]n3)n2N)c1,–,"inconclusive: 18.5 µM [inhibitor, single point]"
Nc1ccc(-c2nc3ccc([N+](=O)[O-])cc3[nH]2)cc1,–,"inconclusive: 3.7 µM [inhibitor, partial curve, poor fit]"
CC(=O)O/C(=C\c1cn(C(C)=O)c2ccccc12)C(=O)O,–,"inconclusive: 2.33 µM [inhibitor, single point]"
O=C(COc1ccccc1Br)N1CCN(c2ccccc2)CC1,–,"inconclusive: 14.7 µM [inhibitor, single point]"
CC(C)c1csc(CN2CCC(CCC(=O)NCC3CCCO3)CC2)n1 (stereo not drawn),–,"inconclusive: 10.4 µM [inhibitor, single point]"
